The source of these data is PubChem BioAssay AID248 (DTP/NCI, 2004).

The experiment deals with L1210 leukemia ip in BDF1 mice, survival T/C. Briefly: NCI In Vivo Anticancer Drug Screen. Data for tumor model L1210 Leukemia (intraperitoneal) in B6D2F1 (BDF1) mice. The settings on record: T/C endpoint: mean survival time, higher T/C = longer survival.
Setting [1] is: dose: 200.0 mg/kg/injection, schedule: Q04DX003 (ip), vehicle: saline.
Setting [2] is: dose: 400.0 mg/kg/injection, schedule: Q04DX003 (ip), vehicle: saline.
[3] abbreviates: dose: 400.0 mg/kg/injection, schedule: Q01DX001 (ip), vehicle: carboxymethylcellulose (CMC).
Where [4] appears, read: dose: 200.0 mg/kg/injection, schedule: Q01DX009 (ip), vehicle: Klucel (hydroxypropylcellulose) (HPC).
[5] abbreviates: dose: 400.0 mg/kg/injection, schedule: Q01DX009 (ip), vehicle: Klucel (hydroxypropylcellulose) (HPC).
[6] abbreviates: dose: 100.0 mg/kg/injection, schedule: Q01DX009 (ip), vehicle: saline.
Where [7] appears, read: dose: 200.0 mg/kg/injection, schedule: Q01DX009 (ip), vehicle: saline.
The mark [8] stands for this setting: dose: 400.0 mg/kg/injection, schedule: Q01DX009 (ip), vehicle: gum acacia.
[9] abbreviates: dose: 200.0 mg/kg/injection, schedule: Q01DX009 (ip), vehicle: saline with Tween-80.
The mark [10] stands for this setting: dose: 400.0 mg/kg/injection, schedule: Q01DX009 (ip), vehicle: saline with Tween-80.
Setting [11] is: dose: 300.0 mg/kg/injection, schedule: Q01DX001 (ip), vehicle: saline.
Setting [12] is: dose: 400.0 mg/kg/injection, schedule: Q04DX003 (ip), vehicle: saline with Tween-80.
The mark [13] stands for this setting: dose: 400.0 mg/kg/injection, schedule: Q04DX003 (ip), vehicle: Klucel (hydroxypropylcellulose) (HPC).
[14] abbreviates: dose: 100.0 mg/kg/injection, schedule: Q04DX003 (ip), vehicle: saline with Tween-80.
The mark [15] stands for this setting: dose: 200.0 mg/kg/injection, schedule: Q04DX002 (ip), vehicle: saline with Tween-80.
The mark [16] stands for this setting: dose: 400.0 mg/kg/injection, schedule: Q04DX002 (ip), vehicle: saline with Tween-80.

The structures appear in SMILES notation. The list does not hold the whole screen: it gathers tests that were run many times, whatever their T/C, doses with no T/C, and many T/C values between a quarter and a half above the control. Further doses and runs are listed elsewhere. T/C: endpoint of the treated group in % of that of the vehicle group. Some entries give survivors of the animals treated and no T/C: the source holds a T/C of zero for them, seemingly a mark for toxic or unscored doses. Some doses without a T/C left all or most animals alive at the check, yet need not have been tolerated: survival well below the control is almost never listed, so the zero probably covers shortened survival too. Survivors were counted at the toxicity check, usually on the fifth day, unless a day is given; later deaths do not show. Schedule codes are those of the source, taken here to give the interval after Q, in days (D) or hours (H), and the number of doses after X. Some schedules carry Z or #; the key to these is not given. Some entries hold several experiments; the values are given in rising order. For survival time, the PubChem record calls one and a half times the control and up active, and a quarter to a half above the control has no call in these data; cut-offs in other NCI protocols can differ. Some T/C values are followed by the survivors on the day toxicity was checked, most often the fifth; where none is given, no animal had died by that day.

Regarding `CCCCCCCCCC(C)CC1CCCCC1` (stereo not given), the survivor count (dose: 400.0 mg/kg/injection, schedule: Q01DX001 (ip), vehicle: saline with Tween-80) was 6 of 6.

With `C[N+]1(C)C2CSCC1CC(O)C2` (stereo not given), the survivor count under setting [1] was 1 of 6 and the survivor count under setting [2] is 0 of 6.

With `CC(C)(C)C1COP(=O)(Oc2ccccc2)OC1` (stereo not given), the survivor count under setting [3] is 0 of 6.

As for `CSc1ccc(NC(=O)Sc2ccccc2C)cc1`, the survivor count reads like this: (dose: 150.0 mg/kg/injection, schedule: Q01DX009 (ip), vehicle: Klucel (hydroxypropylcellulose) (HPC)) 1 of 3; under setting [4], 5 of 6; under setting [5], 1 of 6 and 3 of 3.

Turning to `CCCCn1cncc1C`, the survivor count reads like this: (dose: 12.5 mg/kg/injection, schedule: Q01DX009 (ip), vehicle: saline) 1 of 3; (dose: 25.0 mg/kg/injection, schedule: Q01DX009 (ip), vehicle: saline) 0 of 3; (dose: 50.0 mg/kg/injection, schedule: Q01DX009 (ip), vehicle: saline) 0 of 3; under setting [6], 0 of 3; under setting [7], 0 of 3.

As for `CCCCOC(=O)c1ccc(OC(=O)NC(C)(C)C)cc1`, the T/C reads like this: (dose: 100.0 mg/kg/injection, schedule: Q01DX009 (ip), vehicle: gum acacia) 96, 106, 115, 121 % of control; (dose: 200.0 mg/kg/injection, schedule: Q01DX009 (ip), vehicle: gum acacia) 91, 109, 118, 125 % of control; under setting [8], 86, 87, 89 % of control [5 of 6 alive]. In addition, under setting [8], the survivor count is 3 of 3.

Consider `O=C(O)C1Cc2nc[nH]c2CN1CO` (stereo not given), for which, where the note is “dose: 50.0 mg/kg/injection, schedule: Q01DX009 (ip), vehicle: saline with Tween-80”, the T/C is 141 % of control. Further, the survivor count is 4 of 6 under setting [9] and 3 of 6 under setting [10].

As for `CCCCC1(C(C)C)C(=O)NC(=O)NC1=O`, the survivor count under setting [11] was 3 of 6.

As for `COC(=O)COc1ccc(Cl)cc1C(=O)O`, the survivor count under setting [12] is 5 of 6.

For `CCOC(=O)N/N=C(/C)c1cccc([N+](=O)[O-])c1`, the survivor count by setting is: under setting [4], 0 of 6; under setting [5], 0 of 6.

Take `COc1ccccc1OCCOCCNC1CC2CCC1(C)C2(C)C` (stereo not given): the survivor count reads like this: (dose: 200.0 mg/kg/injection, schedule: Q04DX003 (ip), vehicle: Klucel (hydroxypropylcellulose) (HPC)) 0 of 6; under setting [13], 0 of 6.

As to `CCOC(=O)c1cnc(SC)nc1N(C)C`, the survivor count under setting [12] is recorded as 2 of 6.

Take `FCc1nc2nc(Cl)c(Cl)nc2[nH]1`: the survivor count is recorded as 4 of 6 under setting [6]; 0 of 6 under setting [7]; 0 of 6 (dose: 300.0 mg/kg/injection, schedule: Q01DX009 (ip), vehicle: saline); 5 of 6 under setting [2].

With `O=S(=O)(F)c1c(Cl)cccc1CBr`, the survivor count is 5 of 6 (dose: 100.0 mg/kg/injection, schedule: Q01DX009 (ip), vehicle: saline with Tween-80); 5 of 6 under setting [9]; 2 of 6 under setting [10].

Take `O=P(O)(O)c1ccccc1`: the survivor count under setting [3] is recorded as 3 of 4.

Regarding `CCOC(=O)C(=O)C(C#N)c1cccc2ccccc12` (stereo not given), the survivor count under setting [13] is on record as 1 of 6.

Turning to `O=S1(=O)CC23CCC2(COC3)C1` (stereo not given), the survivor count is, setting by setting: (dose: 100.0 mg/kg/injection, schedule: Q04DX003 (ip), vehicle: saline) 0 of 6; under setting [1], 0 of 6; under setting [2], 0 of 6.

With `C=C(Br)C(C)N` (stereo not given), the survivor count runs as follows: under setting [7], 1 of 6; (dose: 400.0 mg/kg/injection, schedule: Q01DX009 (ip), vehicle: saline) 0 of 6.

Turning to `Cc1ccc(-n2c(O)c(C=N)c(=O)[nH]c2=O)cc1`, the survivor count under setting [10] was 5 of 6.

As to `Cc1ccc(N2C(=O)CC(Sc3ccccc3N)C2=O)cc1` (stereo not given), under setting [1], the survivor count was 6 of 6.

Regarding `C=C(Br)CNC(=O)OCCCC`, the survivor count under setting [2] was 6 of 6.

In the case of `CC(=O)[O][Hg][c]1c(C)c(C)cc(C)c1C`, the survivor count is listed as 3 of 6 under setting [14]; 1 of 6 (dose: 200.0 mg/kg/injection, schedule: Q04DX003 (ip), vehicle: saline with Tween-80); 0 of 6 under setting [12].

On to `CCCCCCCCN(C=O)CCCCCCCC`, for which the survivor count runs as follows: under setting [15], 1 of 3; under setting [16], 0 of 3.

As for `CC(COC(=O)c1ccc(N)cc1)NC1CCCCC1` (stereo not given), the survivor count (dose: 300.0 mg/kg/injection, schedule: Q01DX001 (ip), vehicle: other) is reported as 0 of 6.

With `COc1ccc2c(c1)CNC1c3cc(OC)c(O)cc3CC21` (stereo not given), the T/C under setting [14] was 127 % of control [5 of 6 alive]. The survivor count under setting [12] was 0 of 6.

In the case of `O=C(O)c1ccccc1C(=O)Nc1cccc2ccccc12`, the survivor count (dose: 400.0 mg/kg/injection, schedule: Q04DX002 (ip), vehicle: Klucel (hydroxypropylcellulose) (HPC)) was 3 of 3.

For `Clc1ccc([I+]c2ccc(Cl)cc2)cc1`, the survivor count is reported as 1 of 3 (dose: 100.0 mg/kg/injection, schedule: Q04DX002 (ip), vehicle: saline with Tween-80); 0 of 3 under setting [15]; 0 of 3 under setting [16].

In the case of `O=C1c2ccccc2C(=O)N1CCc1ccccn1`, the survivor count under setting [12] is on record as 1 of 6.

For `COc1ccc(Nc2nc(N)nc(N)c2N)cc1`, the survivor count (dose: 200.0 mg/kg/injection, schedule: Q01DX Z (ip), vehicle: saline) is 0 of 6.

Consider `CCCCCc1cc[n+](CC(=O)c2ccccc2)cc1`, for which the survivor count by setting is: (dose: 50.0 mg/kg/injection, schedule: Q04DX003 (ip), vehicle: saline) 6 of 6; (dose: 200.0 mg/kg/injection, schedule: Q01DX001 (ip), vehicle: saline) 0 of 6; (dose: 400.0 mg/kg/injection, schedule: Q01DX001 (ip), vehicle: saline) 0 of 6.

In the case of `O=C(O)COc1cc(F)c(Cl)cc1Cl`, under setting [5], the survivor count is reported as 3 of 6.

For `CCC/C=N/Nc1ccnc(SCc2ccccc2)n1`, the survivor count reads like this: (dose: 150.0 mg/kg/injection, schedule: Q01DX009 (ip), vehicle: DMSO) 3 of 6; (dose: 300.0 mg/kg/injection, schedule: Q01DX009 (ip), vehicle: DMSO) 1 of 6.

Regarding `Cc1cccc(/C=N\NC(=O)CCCC(=O)N/N=C/c2cccc(C)n2)n1`, the survivor count runs as follows: (dose: 200.0 mg/kg/injection, schedule: Q01DX001 (ip), vehicle: carboxymethylcellulose (CMC)) 4 of 4; under setting [3], 4 of 4.

Consider `NCC(=O)O.[Co]`, for which the survivor count (dose: 26.6 mg/kg/injection, schedule: Q01DX Z (ip), vehicle: saline) was 0 of 6.

For `CC1(C)C2CCC1(C)C(Oc1ccccc1)C2` (stereo not given), under setting [10], the survivor count was 6 of 6.

As to `CC1(C)CNC(C(=O)O)C1` (stereo not given), the survivor count under setting [10] was 6 of 6.

In the case of `C=CC1(C)CCC2C(=CCC3C2(C)CC(O)C(O)C3(C)COC2OC(CO)C(O)C(O)C2O)C1` (stereo not given), the survivor count is, setting by setting: (dose: 150.0 mg/kg/injection, schedule: Q01DX001 (ip), vehicle: saline) 2 of 6; under setting [11], 0 of 6.
